# No constants are given. Whether binding was seen depends on the method and setting. Binding seen in cells or lysates may run through a third protein. A yes stands for co-enrichment or nearness to the bait. Other partners may have been found.
# Sequences of proteins named here, by UniProt entry; tags and fusion partners are left off.
# UniProt Q80U78: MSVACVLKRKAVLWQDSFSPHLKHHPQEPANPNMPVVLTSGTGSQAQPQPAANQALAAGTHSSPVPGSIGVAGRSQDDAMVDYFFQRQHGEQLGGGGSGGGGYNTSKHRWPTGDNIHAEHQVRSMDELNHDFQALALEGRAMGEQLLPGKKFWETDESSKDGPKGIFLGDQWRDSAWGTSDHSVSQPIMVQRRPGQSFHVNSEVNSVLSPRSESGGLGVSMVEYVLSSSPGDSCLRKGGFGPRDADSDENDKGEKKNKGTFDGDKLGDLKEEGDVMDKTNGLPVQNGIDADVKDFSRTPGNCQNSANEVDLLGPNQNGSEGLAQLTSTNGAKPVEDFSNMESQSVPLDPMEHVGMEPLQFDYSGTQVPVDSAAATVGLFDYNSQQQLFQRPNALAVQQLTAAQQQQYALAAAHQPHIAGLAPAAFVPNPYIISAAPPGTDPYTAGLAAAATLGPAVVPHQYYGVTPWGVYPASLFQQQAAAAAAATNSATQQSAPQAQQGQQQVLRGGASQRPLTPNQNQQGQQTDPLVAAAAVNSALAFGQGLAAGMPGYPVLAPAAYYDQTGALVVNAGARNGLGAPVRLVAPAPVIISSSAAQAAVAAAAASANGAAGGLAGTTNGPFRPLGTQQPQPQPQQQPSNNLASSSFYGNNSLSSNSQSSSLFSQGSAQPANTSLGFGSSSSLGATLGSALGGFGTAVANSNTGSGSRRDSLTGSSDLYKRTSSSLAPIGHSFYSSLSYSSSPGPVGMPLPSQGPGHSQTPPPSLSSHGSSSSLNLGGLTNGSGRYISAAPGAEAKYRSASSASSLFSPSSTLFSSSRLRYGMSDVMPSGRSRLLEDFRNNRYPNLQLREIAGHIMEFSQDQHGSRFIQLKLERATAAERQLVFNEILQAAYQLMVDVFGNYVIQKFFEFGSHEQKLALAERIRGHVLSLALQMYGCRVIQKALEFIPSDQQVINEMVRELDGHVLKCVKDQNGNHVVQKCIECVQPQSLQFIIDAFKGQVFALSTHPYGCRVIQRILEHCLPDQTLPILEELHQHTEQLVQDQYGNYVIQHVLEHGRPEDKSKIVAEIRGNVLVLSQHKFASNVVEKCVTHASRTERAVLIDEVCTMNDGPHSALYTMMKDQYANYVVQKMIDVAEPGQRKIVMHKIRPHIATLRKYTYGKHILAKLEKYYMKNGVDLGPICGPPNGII
# UniProt Q8CJG0: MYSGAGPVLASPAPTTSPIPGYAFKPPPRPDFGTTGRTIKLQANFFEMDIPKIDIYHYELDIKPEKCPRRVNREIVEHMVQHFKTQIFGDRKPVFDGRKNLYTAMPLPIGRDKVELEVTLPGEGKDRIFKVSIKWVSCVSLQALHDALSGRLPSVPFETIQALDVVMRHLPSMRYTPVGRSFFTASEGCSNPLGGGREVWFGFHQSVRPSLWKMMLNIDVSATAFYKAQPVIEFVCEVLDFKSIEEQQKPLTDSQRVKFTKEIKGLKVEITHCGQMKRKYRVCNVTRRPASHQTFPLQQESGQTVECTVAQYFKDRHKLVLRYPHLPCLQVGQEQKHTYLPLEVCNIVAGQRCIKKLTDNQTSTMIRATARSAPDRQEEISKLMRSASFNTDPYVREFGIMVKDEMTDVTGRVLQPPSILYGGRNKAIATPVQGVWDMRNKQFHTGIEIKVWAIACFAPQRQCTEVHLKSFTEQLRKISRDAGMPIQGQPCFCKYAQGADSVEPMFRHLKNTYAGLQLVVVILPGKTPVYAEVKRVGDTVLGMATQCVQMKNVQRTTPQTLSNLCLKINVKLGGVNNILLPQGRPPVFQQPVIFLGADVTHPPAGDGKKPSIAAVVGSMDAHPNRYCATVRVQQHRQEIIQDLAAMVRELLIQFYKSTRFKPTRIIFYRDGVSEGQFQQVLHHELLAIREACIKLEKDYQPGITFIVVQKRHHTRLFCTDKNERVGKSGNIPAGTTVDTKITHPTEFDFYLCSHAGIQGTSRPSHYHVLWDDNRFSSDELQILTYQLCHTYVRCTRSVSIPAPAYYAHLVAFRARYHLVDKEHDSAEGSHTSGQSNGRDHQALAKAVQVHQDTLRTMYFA
# UniProt P53995: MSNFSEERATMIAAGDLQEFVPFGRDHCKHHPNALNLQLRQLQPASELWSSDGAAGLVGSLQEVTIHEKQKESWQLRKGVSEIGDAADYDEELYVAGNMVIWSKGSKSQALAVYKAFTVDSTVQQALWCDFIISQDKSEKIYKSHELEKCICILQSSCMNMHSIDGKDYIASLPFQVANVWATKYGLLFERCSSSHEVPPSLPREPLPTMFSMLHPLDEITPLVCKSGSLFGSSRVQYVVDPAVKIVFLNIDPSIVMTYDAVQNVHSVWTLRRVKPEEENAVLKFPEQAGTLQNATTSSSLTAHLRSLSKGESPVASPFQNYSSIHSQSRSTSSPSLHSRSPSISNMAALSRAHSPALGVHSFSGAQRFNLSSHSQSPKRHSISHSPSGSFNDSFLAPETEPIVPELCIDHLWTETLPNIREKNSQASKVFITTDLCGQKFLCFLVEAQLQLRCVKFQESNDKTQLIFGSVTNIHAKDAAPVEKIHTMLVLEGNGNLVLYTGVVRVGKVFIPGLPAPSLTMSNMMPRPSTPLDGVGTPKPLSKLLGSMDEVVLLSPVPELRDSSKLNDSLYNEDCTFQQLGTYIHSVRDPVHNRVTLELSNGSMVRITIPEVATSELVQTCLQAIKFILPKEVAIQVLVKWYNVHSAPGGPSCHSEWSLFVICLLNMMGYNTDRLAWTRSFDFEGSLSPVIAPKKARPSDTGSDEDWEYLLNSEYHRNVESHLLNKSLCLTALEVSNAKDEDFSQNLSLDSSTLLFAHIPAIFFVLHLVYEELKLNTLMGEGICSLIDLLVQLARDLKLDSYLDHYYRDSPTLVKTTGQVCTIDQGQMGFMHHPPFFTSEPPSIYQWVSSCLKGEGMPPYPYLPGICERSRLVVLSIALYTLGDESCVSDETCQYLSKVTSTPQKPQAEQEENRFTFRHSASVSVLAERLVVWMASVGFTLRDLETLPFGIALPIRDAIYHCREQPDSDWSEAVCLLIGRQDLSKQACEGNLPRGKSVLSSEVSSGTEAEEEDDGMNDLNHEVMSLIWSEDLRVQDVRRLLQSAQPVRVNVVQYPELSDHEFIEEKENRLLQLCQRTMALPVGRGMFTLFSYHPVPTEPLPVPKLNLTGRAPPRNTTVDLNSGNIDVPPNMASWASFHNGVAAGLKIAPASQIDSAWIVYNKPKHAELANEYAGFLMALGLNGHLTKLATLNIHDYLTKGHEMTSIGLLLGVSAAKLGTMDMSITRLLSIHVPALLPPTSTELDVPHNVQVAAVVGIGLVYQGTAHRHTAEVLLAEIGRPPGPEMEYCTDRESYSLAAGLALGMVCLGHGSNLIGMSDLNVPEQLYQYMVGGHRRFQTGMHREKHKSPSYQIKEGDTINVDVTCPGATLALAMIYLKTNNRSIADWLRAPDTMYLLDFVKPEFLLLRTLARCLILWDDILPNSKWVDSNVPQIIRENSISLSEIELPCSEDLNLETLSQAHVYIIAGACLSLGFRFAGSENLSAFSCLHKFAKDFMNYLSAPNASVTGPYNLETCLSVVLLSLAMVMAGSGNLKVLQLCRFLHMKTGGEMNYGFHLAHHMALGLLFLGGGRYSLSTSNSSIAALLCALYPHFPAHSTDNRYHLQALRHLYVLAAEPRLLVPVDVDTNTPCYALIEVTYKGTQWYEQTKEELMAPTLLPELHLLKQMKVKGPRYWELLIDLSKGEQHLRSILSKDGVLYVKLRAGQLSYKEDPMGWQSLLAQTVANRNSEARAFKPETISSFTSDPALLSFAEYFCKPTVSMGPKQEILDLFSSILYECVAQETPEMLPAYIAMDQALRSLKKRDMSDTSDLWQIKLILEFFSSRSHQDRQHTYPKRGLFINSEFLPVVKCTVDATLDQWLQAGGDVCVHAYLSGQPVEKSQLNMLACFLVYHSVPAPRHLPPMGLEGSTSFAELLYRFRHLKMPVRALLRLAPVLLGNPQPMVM
# UniProt Q8C5L3: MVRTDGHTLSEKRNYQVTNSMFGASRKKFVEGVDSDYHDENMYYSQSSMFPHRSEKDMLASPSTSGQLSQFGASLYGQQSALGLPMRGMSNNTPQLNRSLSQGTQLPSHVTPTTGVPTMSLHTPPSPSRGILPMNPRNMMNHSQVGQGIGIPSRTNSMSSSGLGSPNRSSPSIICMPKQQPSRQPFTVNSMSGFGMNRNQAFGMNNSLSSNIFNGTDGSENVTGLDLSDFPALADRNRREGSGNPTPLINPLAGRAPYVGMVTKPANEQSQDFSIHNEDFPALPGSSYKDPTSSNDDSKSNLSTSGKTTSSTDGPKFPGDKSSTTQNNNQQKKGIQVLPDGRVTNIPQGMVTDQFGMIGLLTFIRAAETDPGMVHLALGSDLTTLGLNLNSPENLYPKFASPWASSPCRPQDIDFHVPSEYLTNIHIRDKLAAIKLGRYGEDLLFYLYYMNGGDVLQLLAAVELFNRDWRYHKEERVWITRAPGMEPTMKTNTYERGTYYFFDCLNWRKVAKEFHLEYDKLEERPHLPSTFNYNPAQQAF
# UniProt Q8BH15: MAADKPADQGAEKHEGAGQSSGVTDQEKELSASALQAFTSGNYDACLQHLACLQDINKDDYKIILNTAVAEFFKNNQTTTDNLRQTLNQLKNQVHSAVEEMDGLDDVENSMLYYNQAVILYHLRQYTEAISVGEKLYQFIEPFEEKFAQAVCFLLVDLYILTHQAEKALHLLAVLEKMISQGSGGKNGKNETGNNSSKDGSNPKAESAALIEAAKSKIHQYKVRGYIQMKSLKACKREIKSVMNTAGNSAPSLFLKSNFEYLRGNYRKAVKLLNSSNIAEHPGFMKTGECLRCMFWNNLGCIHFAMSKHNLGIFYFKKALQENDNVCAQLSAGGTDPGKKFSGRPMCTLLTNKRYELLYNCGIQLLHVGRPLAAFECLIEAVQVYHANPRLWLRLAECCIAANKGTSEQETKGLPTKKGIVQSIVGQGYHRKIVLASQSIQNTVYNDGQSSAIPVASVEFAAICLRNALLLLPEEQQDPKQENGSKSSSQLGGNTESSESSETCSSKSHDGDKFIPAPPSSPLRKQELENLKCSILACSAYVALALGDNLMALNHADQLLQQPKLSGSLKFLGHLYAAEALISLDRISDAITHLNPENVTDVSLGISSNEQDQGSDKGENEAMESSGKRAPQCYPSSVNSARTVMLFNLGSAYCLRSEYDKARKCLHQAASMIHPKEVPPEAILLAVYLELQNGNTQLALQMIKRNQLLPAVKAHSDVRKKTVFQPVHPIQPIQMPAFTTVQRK
# UniProt Q80U58: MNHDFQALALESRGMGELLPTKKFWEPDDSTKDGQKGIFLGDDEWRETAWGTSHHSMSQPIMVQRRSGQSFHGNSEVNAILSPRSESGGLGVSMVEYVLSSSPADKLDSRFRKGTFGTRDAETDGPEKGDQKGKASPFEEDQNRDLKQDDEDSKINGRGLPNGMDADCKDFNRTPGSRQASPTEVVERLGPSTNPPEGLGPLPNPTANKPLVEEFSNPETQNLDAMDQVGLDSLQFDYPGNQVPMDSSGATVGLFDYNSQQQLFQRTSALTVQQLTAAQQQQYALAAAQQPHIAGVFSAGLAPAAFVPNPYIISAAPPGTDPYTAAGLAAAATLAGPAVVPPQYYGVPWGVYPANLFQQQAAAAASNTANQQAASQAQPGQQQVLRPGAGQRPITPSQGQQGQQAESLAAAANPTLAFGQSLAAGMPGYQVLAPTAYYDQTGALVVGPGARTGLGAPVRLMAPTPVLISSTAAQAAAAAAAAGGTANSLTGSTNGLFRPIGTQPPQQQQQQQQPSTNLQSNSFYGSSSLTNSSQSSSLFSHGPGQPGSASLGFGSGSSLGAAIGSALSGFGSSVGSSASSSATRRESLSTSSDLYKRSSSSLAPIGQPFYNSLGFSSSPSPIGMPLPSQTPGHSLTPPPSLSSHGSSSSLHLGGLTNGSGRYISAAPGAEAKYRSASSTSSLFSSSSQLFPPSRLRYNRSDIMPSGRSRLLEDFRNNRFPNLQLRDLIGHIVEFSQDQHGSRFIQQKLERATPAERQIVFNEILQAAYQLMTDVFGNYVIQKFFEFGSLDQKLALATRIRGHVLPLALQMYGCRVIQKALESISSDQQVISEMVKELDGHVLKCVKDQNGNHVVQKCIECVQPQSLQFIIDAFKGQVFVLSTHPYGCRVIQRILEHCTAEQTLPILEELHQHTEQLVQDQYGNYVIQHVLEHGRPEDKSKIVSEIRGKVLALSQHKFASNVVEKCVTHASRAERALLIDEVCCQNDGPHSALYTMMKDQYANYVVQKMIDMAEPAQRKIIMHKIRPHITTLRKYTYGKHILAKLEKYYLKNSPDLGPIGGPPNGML
# Biological target: Pumilio1 (Pum1) (mouse (endogenous in brain)) (UniProt Q80U78)
# Test: affinity purification with mass spectrometry; IP against endogenous Pum1 (goat anti-PUM1, Dynabeads Protein G) from lysates of 10-week-old wild-type mouse whole brain, cerebellum, hippocampus and cortex; lysis and wash buffer 200 mM NaCl2, 100 mM NaPO4, 20 mM Hepes pH 7.4, 1% Triton X; IP against IgG as negative control; LC-MS/MS
row,Molecule,binding
1,"Rbfox2 (protein, UniProt Q8BP71 1-449) MAEGGQAQQQPPQLGPGAAARGMKRESEVELPVPGAGADGPEPGLSKRPRTEEAADGGMQNEPLTPGYHGFPARDGQGNQEPTTTPDAMVQPFTTIPFPPPPQNGIPTEYGVPHTQDYAGQTSEHNLTLYGSTQPHGEQSSNSPSNQNGSLTQTEGGAQTDGQQSQTQSSENSESKSTPKRLHVSNIPFRFRDPDLRQMFGQFGKILDVEIIFNERGSKGFGFVTFENSADADRAREKLHGTVVEGRKIEVNNATARVMTNKKMVTPYANGWKLSPVVGAVYGPELYAASSFQADVSLGNEAAVPLSGRGGINTYIPLISLPLVPGFPYPTAATTAAAFRGAHLRGRGRTVYGAVRAVPPTAIPAYPGVVYQDGFYGADLYGGYAAYRYAQPATATAATAAAAAAAAYSDGYGRVYTADPYHALAPAASYGVGAVASLYRGGYSRFAPY",binds
2,"Rbfox3 (protein, UniProt Q8BIF2 1-374) MAQPYPPAQYPPPPQNGIPAEYAPPPPHPTQDYSGQTPVPPEHGMTLYTPAQTHPEQPGTEASTQPIAGTQTVPQADEAAQTDNQQLHPSDPTEKQQPKRLHVSNIPFRFRDPDLRQMFGQFGKILDVEIIFNERGSKGFGFVTFETSSDADRAREKLNGTIVEGRKIEVNNATARVMTNKKPGNPYANGWKLNPVVGTVYGPEFYAVTSFPYPTTGTAVAYRGAHLRGRGRAVYNTFRAAPPPPPIPTYGAALEQTLVKMPVPWAGLAPCPLPPQQTPEPAYPTSPAFPPLSCPFASRVVYQDGFYGAEIYGGYAAYRYAQPAAATAAAYSDSYGRVYAAADPYHHTIGPTATYSIGTMASLCRGGYSRFTPY",binds
3,"Rbfox1 (protein, UniProt Q9JJ43 1-396) MNCEREQLRGNQEAAAAPDTMAQPYASAQFAPPQNGIPAEYTAPHPHPAPEYTGQTTVPDHTLNLYPPTQTHSEQSADTSAQTVSGTATQTDDAAPTDGQPQTQPSENTESKSQPKRLHVSNIPFRFRDPDLRQMFGQFGKILDVEIIFNERGSKGFGFVTFENSADADRAREKLHGTVVEGRKIEVNNATARVMTNKKTVNPYTNGWKLNPVVGAVYSPDFYAGTVLLCQANQEGSSMYSGPSSLVYTSAMPGFPYPAATAAAAYRGAHLRGRGRTVYNTFRAAAPPPPIPAYGGVVYQDGFYGADIYGGYAAYRYAQPTPATAAAYSDSYGRVYAADPYHHTLAPAPTYGVGAMNAFAPLTDAKTRSHADDVGLVLSSLQASIYRGGYNRFAPY",binds

# Biological target: Pumilio1 (Pum1) (mouse (endogenous in brain)) (UniProt Q80U78)
# Test: as above
# Remark: another data set of the same source
row,Molecule,binding
1,Ago2 (from UniProt Q8CJG0 1-860),binds
2,Anapc1 (from UniProt P53995 1-1944),binds
3,Cad (from UniProt B2RQC6 1-2225),binds
4,Cnot1 (from UniProt Q6ZQ08 1-2375),binds
5,Cnot2 (from UniProt Q8C5L3 1-540),binds
6,Cnot10 (from UniProt Q8BH15 1-744),binds
7,Eif3b (from UniProt Q8JZQ9 1-803),binds
8,Fzr1 (from UniProt Q9R1K5 1-493),binds
9,Pum2 (from UniProt Q80U58 1-1066),binds
10,Rptor (from UniProt Q8K4Q0 1-1335),binds
